# The supplement of paper PMC4604168 (melanoma cell lines)
# The list shows a part of the results. Repeats are few or missing, and single values can be far off.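 The apoptosis fraction was the count of cleaved-PARP antibody-stained nuclei relative to all DNA-stained nuclei, imaged in 1,536-well plates. Screening doses were set so most cells survived, and baseline and induced cleaved-PARP levels vary greatly across cell lines.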
# What was measured:
# Assay in all cases: cleaved PARP positive nuclei fraction relative to DMSO control; melanoma cells; higher = more apoptosis
# Details in all cases: library dose: low library concentration; 72 h
# CBRC034 = tested on: CBRC034 (line from a melanoma biopsy)
# COLO792 = tested on: COLO792
# COLO800 = tested on: COLO800
# COLO829 = tested on: COLO829
# G361 = tested on: G361
# IPC-298 = tested on: IPC-298
# IST-MEL1 = tested on: IST-MEL1
# LB2518-MEL = tested on: LB2518-MEL
# LOXIMVI = tested on: LOXIMVI
# MEL-HO = tested on: MEL-HO
Compound,cleaved PARP positive nuclei fraction (CBRC034) [%],cleaved PARP positive nuclei fraction (COLO792) [%],cleaved PARP positive nuclei fraction (COLO800) [%],cleaved PARP positive nuclei fraction (COLO829) [%],cleaved PARP positive nuclei fraction (G361) [%],cleaved PARP positive nuclei fraction (IPC-298) [%],cleaved PARP positive nuclei fraction (IST-MEL1) [%],cleaved PARP positive nuclei fraction (LB2518-MEL) [%],cleaved PARP positive nuclei fraction (LOXIMVI) [%],cleaved PARP positive nuclei fraction (MEL-HO) [%]
"NC(=O)Nc1cc(-c2cccc(F)c2)sc1C(=O)N[C@H]1CCCNC1 + Cc1cc(SCc2sc(-c3ccc(C(F)(F)F)c(F)c3)nc2C)ccc1OCC(=O)O [GW0742] (first compound 0.02 µM, partner dose 2 µM)",96.7,60.8,135,97.5,130,73.5,25.2,190,107,–
"C[As](C)SC[C@H](NC(=O)CC[C@H](N)C(=O)O)C(=O)NCC(=O)O [Darinaparsin] + CCc1ccc(CCOc2ccc(CC3SC(=O)NC3=O)cc2)nc1 [pioglitazone] (first compound 0.4 µM, partner dose 2 µM)",88.1,55.2,37.7,95.6,71,39.6,29.4,88.6,74.1,–
"N#Cc1c(O)c2c(-c3ccc(-c4ccccc4O)cc3)csc2[nH]c1=O + O=C(Oc1ccc([N+](=O)[O-])cc1)N1CCC(C(O)(c2ccc3c(c2)OCO3)c2ccc3c(c2)OCO3)CC1 [JZL184] (first compound 2 µM, partner dose 1 µM)",123,139,72.3,99.7,48,82.9,42.1,244,41.7,–
"C[As](C)SC[C@H](NC(=O)CC[C@H](N)C(=O)O)C(=O)NCC(=O)O [Darinaparsin] + O=c1cc(-c2cccc3c2Sc2ccccc2S3)oc(N2CCOCC2)c1 [KU55933] (first compound 0.4 µM, partner dose 1 µM)",209,104,97.4,74.3,23.9,77.8,56,73.6,69.8,–
"Cc1cc(N2CCOCC2)cc2[nH]c(-c3c(NC[C@@H](O)c4cccc(Cl)c4)cc[nH]c3=O)nc12 + Cc1cc(SCc2sc(-c3ccc(C(F)(F)F)c(F)c3)nc2C)ccc1OCC(=O)O [GW0742] (first compound 0.2 µM, partner dose 2 µM)",44.9,102,293,91.4,148,120,48.9,98.5,27.9,–
"C#Cc1cccc(Nc2ncnc3cc(OCCOC)c(OCCOC)cc23)c1 [erlotinib] + C/C(O)=C(\C#N)C(=O)Nc1cc(Br)ccc1Br [LFM-A13] (first compound 0.8 µM, partner dose 2 µM)",167,78.1,167,94.1,102,131,88.6,87.3,66.4,–
"C[C@]1(c2nc3c(C(N)=O)cccc3[nH]2)CCCN1 [Veliparib] + O=C(Oc1ccc([N+](=O)[O-])cc1)N1CCC(C(O)(c2ccc3c(c2)OCO3)c2ccc3c(c2)OCO3)CC1 [JZL184] (first compound 1.4 µM, partner dose 1 µM)",88.5,136,190,102,76.4,41.6,55,185,277,–
"C[As](C)SC[C@H](NC(=O)CC[C@H](N)C(=O)O)C(=O)NCC(=O)O [Darinaparsin] + O=C(O)C(=O)Nc1sc2c(c1C(=O)O)CCNC2 [TCS401] (first compound 0.4 µM, partner dose 1.66667 µM)",178,69.9,38.9,66.8,72.4,116,169,156,29,–
"N#Cc1c(O)c2c(-c3ccc(-c4ccccc4O)cc3)csc2[nH]c1=O + C/C(O)=C(\C#N)C(=O)Nc1cc(Br)ccc1Br [LFM-A13] (first compound 2 µM, partner dose 2 µM)",103,103,81.4,78.4,129,95.1,92.2,167,55.9,–
"COc1ccc2c(c1)CCC1C2CCC2(C)C(NCCCCCCN3C(=O)C=CC3=O)CCC12 (stereo unspecified) + C/C(O)=C(\C#N)C(=O)Nc1cc(Br)ccc1Br [LFM-A13] (first compound 0.4 µM, partner dose 2 µM)",59.9,182,111,136,108,78.8,151,93.1,59.2,–
"O=C(Nc1cccc(Cl)c1)Nc1ncc(CCNc2ncnc3ccsc23)s1 + C/C(O)=C(\C#N)C(=O)Nc1cc(Br)ccc1Br [LFM-A13] (first compound 0.0008 µM, partner dose 2 µM)",76,105,87.4,161,117,166,415,78.5,48.2,–
"COc1ccc(COc2ccc(Cc3cnc(N)nc3N)cc2OC)cc1 + Cc1cc(SCc2sc(-c3ccc(C(F)(F)F)c(F)c3)nc2C)ccc1OCC(=O)O [GW0742] (first compound 1 µM, partner dose 2 µM)",48,168,117,109,41.2,69.4,42.4,157,120,–
"CCc1ccc(CCOc2ccc(CC3SC(=O)NC3=O)cc2)nc1 (stereo unspecified) [pioglitazone] + Cc1cc(SCc2sc(-c3ccc(C(F)(F)F)c(F)c3)nc2C)ccc1OCC(=O)O [GW0742] (first compound 2 µM, partner dose 2 µM)",65.9,70.8,187,64,83.2,52.9,86.4,72.2,44.7,–
"COc1ccc(-c2ccc3c(N4CCOCC4)nc(N4C[C@@H](C)O[C@@H](C)C4)nc3n2)cc1CO + Cc1cc(SCc2sc(-c3ccc(C(F)(F)F)c(F)c3)nc2C)ccc1OCC(=O)O [GW0742] (first compound 0.02 µM, partner dose 2 µM)",42.9,75.2,12,100,138,103,175,40,102,–
"Oc1cc(-c2nc(-c3ccccc3)[nH]c2-c2ccncc2)ccc1Cl + C/C(O)=C(\C#N)C(=O)Nc1cc(Br)ccc1Br [LFM-A13] (first compound 0.2 µM, partner dose 2 µM)",210,102,67.9,80.7,132,105,42.8,118,45.4,–
"CC1(C)NC(=O)N(c2ccc([N+](=O)[O-])c(C(F)(F)F)c2)C1=O [nilutamide] + O=C(Oc1ccc([N+](=O)[O-])cc1)N1CCC(C(O)(c2ccc3c(c2)OCO3)c2ccc3c(c2)OCO3)CC1 [JZL184] (first compound 1 µM, partner dose 1 µM)",170,62.6,86.6,80.8,100,136,61,158,33.7,–
"C[C@@H]1CCN(C(=O)CC#N)C[C@@H]1N(C)c1ncnc2[nH]ccc12 + C/C(O)=C(\C#N)C(=O)Nc1cc(Br)ccc1Br [LFM-A13] (first compound 1 µM, partner dose 2 µM)",28.4,112,108,72,66.4,363,115,79.2,12,–
"C[As](C)SC[C@H](NC(=O)CC[C@H](N)C(=O)O)C(=O)NCC(=O)O [Darinaparsin] + O=C(Nc1ccccc1)c1cc([N+](=O)[O-])ccc1Cl [GW9662] (first compound 0.4 µM, partner dose 2 µM)",151,62.4,167,65.4,39.7,80.6,562,152,19.7,–
"CC[C@]1(O)C[C@H]2CN(CCc3c([nH]c4ccccc34)[C@@](C(=O)OC)(c3cc4c(cc3OC)N(C=O)[C@H]3[C@@](O)(C(=O)OC)[C@H](OC(C)=O)[C@]5(CC)C=CCN6CC[C@]43[C@@H]65)C2)C1 [vincristine] + C[As](C)SC[C@H](NC(=O)CC[C@H](N)C(=O)O)C(=O)NCC(=O)O [Darinaparsin] (first compound 0.0001 µM, partner dose 0.4 µM)",67,114,89.2,133,163,85.1,98.6,57.6,77.1,96.8
"Cc1cc(SCc2sc(-c3ccc(C(F)(F)F)c(F)c3)nc2C)ccc1OCC(=O)O + O=C1NC(=O)/C(=C/c2ccc(-c3ccc(F)cc3O)o2)S1 [AS252424] (first compound 2 µM, partner dose 1 µM)",47.9,119,145,114,81.3,90.6,44,91.4,173,–
"Cn1cnc2c(F)c(Nc3ccc(Br)cc3Cl)c(C(=O)NOCCO)cc21 [selumetinib] + N.N.[Cl][Pt][Cl] [cisplatin] (first compound 0.015 µM, partner dose 1.6 µM)",101,40.5,74.7,135,95.2,52.5,348,156,188,103
"C[As](C)SC[C@H](NC(=O)CC[C@H](N)C(=O)O)C(=O)NCC(=O)O [Darinaparsin] + COCC[n+]1c2c(n(Cc3cnccn3)c1C)C(=O)c1ccccc1C2=O [YM155] (first compound 0.4 µM, partner dose 0.0004 µM)",96.7,132,76.6,42.4,100,84.7,25.9,210,185,106
"N.N.[Cl][Pt][Cl] [cisplatin] + Nc1ccn([C@@H]2O[C@H](CO)[C@@H](O)C2(F)F)c(=O)n1 [gemcitabine] (first compound 1.6 µM, partner dose 0.0004 µM)",63.1,138,105,51.3,92.5,81.2,193,90.7,16.6,106
"Cn1cc(C2=C(c3cn(C4CCN(Cc5ccccn5)CC4)c4ccccc34)C(=O)NC2=O)c2ccccc21 [Enzastaurin] + C[C@]1(c2nc3c(C(N)=O)cccc3[nH]2)CCCN1 [Veliparib] (first compound 0.8 µM, partner dose 1.4 µM)",79.2,128,79.1,91.9,91.3,81.4,30.9,55.4,125,57.2
"O=c1[nH]nc(Sc2ncc([N+](=O)[O-])s2)n1-c1ccc2c(c1)OCCO2 + C[As](C)SC[C@H](NC(=O)CC[C@H](N)C(=O)O)C(=O)NCC(=O)O [Darinaparsin] (first compound 0.2 µM, partner dose 0.4 µM)",56.5,97.7,248,119,40.9,129,88.3,138,118,104

# Two records drawn at random from the list so far:
Compound,cleaved PARP positive nuclei fraction (CBRC034) [%],cleaved PARP positive nuclei fraction (COLO792) [%],cleaved PARP positive nuclei fraction (COLO800) [%],cleaved PARP positive nuclei fraction (COLO829) [%],cleaved PARP positive nuclei fraction (G361) [%],cleaved PARP positive nuclei fraction (IPC-298) [%],cleaved PARP positive nuclei fraction (IST-MEL1) [%],cleaved PARP positive nuclei fraction (LB2518-MEL) [%],cleaved PARP positive nuclei fraction (LOXIMVI) [%],cleaved PARP positive nuclei fraction (MEL-HO) [%]
"C[As](C)SC[C@H](NC(=O)CC[C@H](N)C(=O)O)C(=O)NCC(=O)O [Darinaparsin] + O=C(O)C(=O)Nc1sc2c(c1C(=O)O)CCNC2 [TCS401] (first compound 0.4 µM, partner dose 1.66667 µM)",178,69.9,38.9,66.8,72.4,116,169,156,29,–
"C[C@@H]1CCN(C(=O)CC#N)C[C@@H]1N(C)c1ncnc2[nH]ccc12 + C/C(O)=C(\C#N)C(=O)Nc1cc(Br)ccc1Br [LFM-A13] (first compound 1 µM, partner dose 2 µM)",28.4,112,108,72,66.4,363,115,79.2,12,–
